Laboratory results as given in article PMC12339002.

T1: MML-1::3xFLAG (MML-1 endogenously tagged with 3xFLAG) (C. elegans (endogenous in whole worms)) (UniProt P41846)
T1 sequence: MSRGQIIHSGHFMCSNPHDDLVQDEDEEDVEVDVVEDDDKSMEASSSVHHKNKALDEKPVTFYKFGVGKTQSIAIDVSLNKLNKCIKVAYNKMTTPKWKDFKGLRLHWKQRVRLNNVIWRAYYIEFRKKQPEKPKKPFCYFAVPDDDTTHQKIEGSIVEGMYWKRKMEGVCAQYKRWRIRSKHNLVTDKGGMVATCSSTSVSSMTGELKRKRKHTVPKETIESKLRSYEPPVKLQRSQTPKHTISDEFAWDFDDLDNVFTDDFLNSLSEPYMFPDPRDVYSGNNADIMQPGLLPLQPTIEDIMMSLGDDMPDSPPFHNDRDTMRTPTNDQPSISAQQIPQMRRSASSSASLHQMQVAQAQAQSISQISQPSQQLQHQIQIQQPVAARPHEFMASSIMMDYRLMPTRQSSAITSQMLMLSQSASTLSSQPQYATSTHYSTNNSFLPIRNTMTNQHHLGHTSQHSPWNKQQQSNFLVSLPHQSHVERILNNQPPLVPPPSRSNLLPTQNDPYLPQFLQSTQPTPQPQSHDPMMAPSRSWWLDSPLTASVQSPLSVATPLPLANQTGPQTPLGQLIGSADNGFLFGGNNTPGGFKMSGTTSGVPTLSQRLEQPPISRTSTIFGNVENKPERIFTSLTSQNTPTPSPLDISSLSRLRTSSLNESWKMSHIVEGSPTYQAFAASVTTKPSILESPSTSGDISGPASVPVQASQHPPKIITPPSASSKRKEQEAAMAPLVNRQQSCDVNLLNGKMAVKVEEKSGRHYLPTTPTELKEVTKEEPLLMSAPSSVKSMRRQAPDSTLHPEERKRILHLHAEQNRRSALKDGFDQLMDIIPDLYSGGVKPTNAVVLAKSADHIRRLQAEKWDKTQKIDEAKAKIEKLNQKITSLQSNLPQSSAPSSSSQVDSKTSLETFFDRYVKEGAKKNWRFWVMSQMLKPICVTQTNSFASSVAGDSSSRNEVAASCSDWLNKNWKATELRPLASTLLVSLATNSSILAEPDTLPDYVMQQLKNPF

B1: MXL-2 (protein, UniProt Q9TZ70 1-205)
chain: MSRSRSAAASSSQKPDDMDLMSPDGSASSPSAPNTPATNSGGFSSDRKKATHLRCERQRREAINSGYSDLKDLIPQTTTSLGCKTTNAAILFRACDFMSQLKTDISDADKQLAQLNAQAAALEMIASEYEQMASSVPDAGQSTIQVKMLQLLLDDCFTSFSSQVDFTTYATITRTLLSWVESLAPNAEPFKSTAGKMVTMPFTSP
B2: PLIN-1 (protein, UniProt A8WHP8 1-418)
chain: MTDVEQPVSVEDQQAQAQSYYDQVLGNAYVQTAINAYTKTKEFHPLLNSTLNSAEEKVSTVGNYAAQKAYDGYNSYYVKPKNTAYEAVSYGTERAKTAVESGKQAAIVGGTFGIGAAVVLTQFSLALSAGGAALVLEQVDSAKKLGSSAISTIKEAELAVEHRIFSALHQAQRIAMVPVEKITENTNSLLDILDGAVQKGLNIEVPPSVNLTIGQRVKNLASLIVQGVSNKLFKAHDHVIDPINERARNYLEQLSQSFVLLDIVREKKTWVIEKSNELSTSVFDFKKTLEEEAQKYKVAPEEMLMKHIQSTSEQLSTQLQSLREKGQNVFGDGTKIDSTIDYLENLKKNFTDAEDVYKVRDEVLNEGRQRIAELSTWTTSLLIISAEWQFEPEDLLIEELYFDAPPPVRTRNLYRNRA
B3: MPC-1 (protein, UniProt Q21828 1-137)
chain: MSRVISKVTTYFKQHSTAEWKHYFLSTHFWGPVANWGLPLAALGDLKKNPDMISGPMTSALLIYSSVFMRFAWHVQPRNLLLFACHFANFSAQGAQLGRFVNHNYLHYVEDPVHHKLMMKKEVLEHEHDAEVISKAH

Target: T1, MML-1::3xFLAG (MML-1 endogenously tagged with 3xFLAG) (C. elegans (endogenous in whole worms))
Experiment: affinity purification with mass spectrometry; anti-FLAG M2 magnetic beads with 7 mg whole-worm lysate (mixed population) of MML-1::3xFLAG worms, overnight at 4°C; washes with 300 mM NaCl; on-bead trypsin, LC-MS/MS, label-free quantification against non-transgenic wild-type control; three biological replicates

Binder | binding
B1 | binds
B2 | binds
B3 | binds

These are yes or no findings as the source states them, for the method shown. Binding seen in cells or lysates may run through a third protein. Here binding means that the protein was enriched with, or labelled near, the bait; the list need not be complete. Where a sequence is shown, tags or fusion partners need not be part of it.
